PMC10956046

Target: T1, ZNF692-Flag (UniProt Q9BU19)
T1 sequence: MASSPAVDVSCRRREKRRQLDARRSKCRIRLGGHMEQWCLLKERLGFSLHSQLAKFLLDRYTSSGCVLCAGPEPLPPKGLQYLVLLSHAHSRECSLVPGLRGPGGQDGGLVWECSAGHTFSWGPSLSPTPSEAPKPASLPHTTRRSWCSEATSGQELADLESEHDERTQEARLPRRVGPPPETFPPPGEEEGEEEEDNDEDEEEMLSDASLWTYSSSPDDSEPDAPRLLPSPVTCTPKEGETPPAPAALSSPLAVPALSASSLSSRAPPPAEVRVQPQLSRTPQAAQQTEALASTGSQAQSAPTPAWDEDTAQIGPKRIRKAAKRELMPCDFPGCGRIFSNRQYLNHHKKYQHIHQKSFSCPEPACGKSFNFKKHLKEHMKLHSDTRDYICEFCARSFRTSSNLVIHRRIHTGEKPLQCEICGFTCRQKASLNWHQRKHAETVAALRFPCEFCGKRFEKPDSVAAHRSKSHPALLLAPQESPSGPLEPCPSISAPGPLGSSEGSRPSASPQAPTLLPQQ
Assay: co-IP; ZNF692-Flag precipitated with DYKDDDDK Fab-trap beads (protein A/G agarose as negative control) from lysates of HCT116 ZNF692-Flag cells stably expressing GFP, NPM1-GFP or NPM1-GFP mutants

| Substance | binding |
| --- | --- |
| NPM1-GFP ΔCt (domain or fragment) | binds |
| NPM1-GFP ΔNt (domain or fragment) | no binding |
| NPM1-GFP ΔNt-ΔCt (domain or fragment) | no binding |

These are yes or no findings as the source states them, for the method shown. Binding seen in cells or lysates may run through a third protein. Binding calls can cover weak binding; strength is not graded here. Where a sequence is shown, tags or fusion partners need not be part of it.
